This is an account of results in patent US20230357310A1, “Saponin derivatives with improved therapeutic window” (priority 2019, published 2023).

In this data set the test system is EGFR expressing cells (A431). Briefly: Endosomal escape enhancing activity: saponin titration + 5 pM EGFdianthin (MTS cell viability). Type of data set: cell-based. The note with it: A431, Table A6.

With `CC1OC(OC2C(C)OC(OC(=O)[C@]34CCC(C)(C)CC3C3=CCC5[C@@]6(C)CC[C@H](OC7OC(C(=O)NC(C)(CO)CO)C(O)C(OC8OCC(O)C(O)C8O)C7OC7OC(CO)C(O)C(O)C7O)[C@@](C)(C=O)C6CC[C@@]5(C)[C@]3(C)C[C@H]4O)C(OC3OC(C)C(OC4OCC(O)C(OC5OC(CO)C(O)C(O)C5O)C4O)C(O)C3O)C2O)C(O)C(OC2OCC(O)C(O)C2O)C1O` (stereo partly shown) [SO1861-(Ac—OH)-(Glu-AMPD)], the “Ratio: IC50 hemolysis/IC50 activity” value amounted to 46 and the “Ratio: IC50 toxicity/IC50 activity” value is greater than 33.

In the case of `CC1OC(OC2C(C)OC(OC(=O)C34CCC(C)(C)CC3C3=CCC5C6(C)CCC(OC7OC(C(=O)NC(C)(CO)CO)C(O)C(OC8OCC(O)C(O)C8O)C7OC7OC(CO)C(O)C(O)C7O)C(C)(C=NNC(=O)CCCCCN7C(=O)C=CC7=O)C6CCC5(C)C3(C)CC4O)C(OC3OC(C)C(OC4OCC(O)C(OC5OC(CO)C(O)C(O)C5O)C4O)C(O)C3O)C2O)C(O)C(OC2OCC(O)C(O)C2O)C1O` (stereo not shown) [SO1861-(Ald-EMCH)-(Ac—OH)-(Glu-AMPD)], the “Ratio: IC50 hemolysis/IC50 activity” value is reported as “Not active/” and the “Ratio: IC50 toxicity/IC50 activity” value is on record as “Not active/”.

Take `CC1OC(OC2C(C)OC(OC(=O)C34CCC(C)(C)CC3C3=CCC5C6(C)CCC(OC7OC(C(=O)O)C(O)C(OC8OCC(O)C(O)C8O)C7OC7OC(CO)C(O)C(O)C7O)C(C)(C=NNC(=O)CCCCCN7C(=O)C=CC7=O)C6CCC5(C)C3(C)CC4O)C(OC3OC(C)C(OC4OCC(O)C(OC5OC(CO)C(O)C(O)C5O)C4O)C(O)C3O)C2O)C(O)C(OC2OCC(O)C(O)C2O)C1O` (stereo not shown) [SO1861-(Ald-EMCH)-(Ac—OH)]: the “Ratio: IC50 hemolysis/IC50 activity” value was greater than 100 and the “Ratio: IC50 toxicity/IC50 activity” value is given as greater than 10.

On to `CC1OC(OC2C(C)OC(OC(=O)[C@]34CCC(C)(C)CC3C3=CCC5[C@@]6(C)CC[C@H](OC7OC(C(=O)NC(C)(CO)CO)C(O)C(OC8OCC(O)C(O)C8O)C7OC7OC(CO)C(O)C(O)C7O)[C@@](C)(CO)C6CC[C@@]5(C)[C@]3(C)C[C@H]4O)C(OC3OC(C)C(OC4OCC(O)C(OC5OC(CO)C(O)C(O)C5O)C4O)C(O)C3O)C2O)C(O)C(OC2OCC(O)C(O)C2O)C1O` (stereo partly shown) [SO1861-(Ald-OH)-(Ac—OH)-(Glu-AMPD)], for which the “Ratio: IC50 hemolysis/IC50 activity” value is recorded as “Not active/” and the “Ratio: IC50 toxicity/IC50 activity” value is “Not active/”.

For `CC1OC(OC2C(C)OC(OC(=O)[C@]34CCC(C)(C)CC3C3=CCC5[C@@]6(C)CC[C@H](OC7OC(C(=O)NCCN8C(=O)C=CC8=O)C(O)C(OC8OCC(O)C(O)C8O)C7OC7OC(CO)C(O)C(O)C7O)[C@@](C)(C=O)C6CC[C@@]5(C)[C@]3(C)C[C@H]4O)C(OC3OC(C)C(OC4OCC(O)C(OC5OC(CO)C(O)C(O)C5O)C4O)C(O)C3O)C2O)C(O)C(OC2OCC(O)C(O)C2O)C1O` (stereo partly shown) [SO1861-(Glu-AEM)-(Ac—OH)], the “Ratio: IC50 hemolysis/IC50 activity” value is 25 and the “Ratio: IC50 toxicity/IC50 activity” value was greater than 25.

For the compound `CC1OC(OC2C(C)OC(OC(=O)[C@]34CCC(C)(C)CC3C3=CCC5[C@@]6(C)CC[C@H](OC7OC(C(=O)NCCN8C(=O)C=CC8=O)C(O)C(OC8OCC(O)C(O)C8O)C7OC7OC(CO)C(O)C(O)C7O)[C@@](C)(CO)C6CC[C@@]5(C)[C@]3(C)C[C@H]4O)C(OC3OC(C)C(OC4OCC(O)C(OC5OC(CO)C(O)C(O)C5O)C4O)C(O)C3O)C2O)C(O)C(OC2OCC(O)C(O)C2O)C1O` (stereo partly shown) [SO1861-(Glu-AEM)-(Ald-OH)-(Ac—OH)], the “Ratio: IC50 hemolysis/IC50 activity” value is recorded as “Not active/” and the “Ratio: IC50 toxicity/IC50 activity” value is “Not active/”.

`CC(=O)OC1C(C)OC(OC2C(C)OC(OC(=O)[C@]34CCC(C)(C)CC3C3=CCC5[C@@]6(C)CC[C@H](OC7OC(C(=O)NCCN8C(=O)C=CC8=O)C(O)C(OC8OCC(O)C(O)C8O)C7OC7OC(CO)C(O)C(O)C7O)[C@@](C)(CO)C6CC[C@@]5(C)[C@]3(C)C[C@H]4O)C(OC3OC(C)C(OC4OCC(O)C(OC5OC(CO)C(O)C(O)C5O)C4O)C(O)C3O)C2O)C(O)C1OC1OCC(O)C(O)C1O` (stereo partly shown) [SO1861-(Glu-AEM)-(Ald-OH)]: the “Ratio: IC50 hemolysis/IC50 activity” value is recorded as greater than 50 and the “Ratio: IC50 toxicity/IC50 activity” value is listed as greater than 50.

For `CC(=O)OC1C(C)OC(OC2C(C)OC(OC(=O)[C@]34CCC(C)(C)CC3C3=CCC5[C@@]6(C)CC[C@H](OC7OC(C(=O)O)C(O)C(OC8OCC(O)C(O)C8O)C7OC7OC(CO)C(O)C(O)C7O)[C@@](C)(CO)C6CC[C@@]5(C)[C@]3(C)C[C@H]4O)C(OC3OC(C)C(OC4OCC(O)C(OC5OC(CO)C(O)C(O)C5O)C4O)C(O)C3O)C2O)C(O)C1OC1OCC(O)C(O)C1O` (stereo partly shown) [SO1861-Ald-OH], the “Ratio: IC50 hemolysis/IC50 activity” value is 50 and the “Ratio: IC50 toxicity/IC50 activity” value is reported as 11.
